The text below walks through data of article PMC5323046.

Chains of the proteins cited; added tags and fusions are not shown.
UniProt P51159: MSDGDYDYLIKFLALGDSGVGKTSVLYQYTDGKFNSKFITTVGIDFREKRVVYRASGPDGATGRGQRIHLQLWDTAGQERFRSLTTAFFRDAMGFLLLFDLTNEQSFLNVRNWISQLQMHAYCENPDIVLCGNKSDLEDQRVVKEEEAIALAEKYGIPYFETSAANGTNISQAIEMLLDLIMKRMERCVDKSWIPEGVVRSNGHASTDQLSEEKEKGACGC

These are yes or no findings as the source states them, for the method shown. Binding seen in cells or lysates may run through a third protein. These calls come from enrichment with a bait or labelling near it, and not all partners need be listed. For some assays here: Tags and fused reporters may be left off the sequences shown.

For assay [1], the target named is T1, HA-tagged RAB27B (human) (UniProt O00194).
T1 sequence: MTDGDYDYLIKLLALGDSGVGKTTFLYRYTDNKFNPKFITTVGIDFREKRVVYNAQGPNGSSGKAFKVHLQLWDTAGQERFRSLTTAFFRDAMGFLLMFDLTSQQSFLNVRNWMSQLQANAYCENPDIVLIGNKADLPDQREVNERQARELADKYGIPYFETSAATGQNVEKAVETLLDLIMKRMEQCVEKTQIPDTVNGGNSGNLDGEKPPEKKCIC
In words: affinity purification with mass spectrometry; 293T-REx cells inducibly expressing N-terminally HA-tagged baits; lysis in MCLB (50 mM Tris pH 7.4, 150 mM NaCl, 0.5% NP40); anti-HA-agarose, elution with HA peptide, trypsin, LC-MS/MS; CompPASS, HCIPs with WDN >=1 and APSM >=2.

The target in assay [2] is HA-tagged RAB27A (Ras-related protein Rab-27A) (human) (UniProt P51159). The description is as above.

B1: SYTL1 (protein, UniProt Q8IYJ3 1-562)
chain: MPQRGHPSQEGLWALPSLPMAHGPKPETEGLLDLSFLTEEEQEAIAGVLQRDARLRQLEEGRVSKLRASVADPGQLKILTGDWFQEARSQRHHNAHFGSDLVRASMRRKKSTRGDQAPGHDREAEAAVKEKEEGPEPRLTIDEAPQERLRETEGPDFPSPSVPLKASDPEEASQAQEDPGQGDQQVCAEEADPELEPASGGEQEPRPQQAQTKAASQILENGEEAPGPDPSLDRMLSSSSSVSSLNSSTLSGSQMSLSGDAEAVQVRGSVHFALHYEPGAAELRVHVIQCQGLAAARRRRSDPYVKSYLLPDKQSKRKTAVKKRNLNPVFNETLRYSVPQAELQGRVLSLSVWHRESLGRNIFLGEVEVPLDTWDWGSEPTWLPLQPRVPPSPDDLPSRGLLALSLKYVPAGSEGAGLPPSGELHFWVKEARDLLPLRAGSLDTYVQCFVLPDDSQASRQRTRVVRRSLSPVFNHTMVYDGFGPADLRQACAELSLWDHGALANRQLGGTRLSLGTGSSYGLQVPWMDSTPEEKQLWQALLEQPCEWVDGLLPLRTNLAPRT
Turning to B1, the binding entry in assay [1] and in assay [2] was “binds” in each case.

B2: MYRIP (protein, UniProt Q8NFW9 1-859)
chain: MGRKLDLSGLTDDETEHVLQVVQRDFNLRKKEEERLSELKQKLDEEGSKCSILSKHQQFVEHCCMRCCSPFTFLVNTKRQCGDCKFNVCKSCCSYQKHEKAWVCCVCQQARLLRAQSLEWFYNNVKSRFKRFGSAKVLKNLYRKHRLESGACFDILGGSLFESNLENEGSISGSDSTFYRQSEGHSVMDTLAVALRVAEEAIEEAISKAEAYGDSLDKQNEASYLRDHKEELTEELATTILQKIIRKQKSKSEQQVEEEPGWPHPQSCSTKVADEGTSASPGGYRAPAALWRSQSAFSITGEEALKTPPVEAPSRQPRDQGQHPRAESALPSWKSVDRLDETNLAPVLQSPDGNWVALKDGAPPPTRLLAKPKSGTFQALEVASSVASAYDEMGSDSEEDFDWSEALSKLCPRSRALPRNPQPQPTQAQSSDQGPIAASPSSALSPNPEAMCSDSETSSAGSSREVGHQARLSWLQRKAPRNPAAEKMRLHGELDVNFNPQLASRETSDSSEPEEAPHTTDRRARRWRRARLGSEEPSKEPSSPSAQLRDLDTHQVSDDLSETDISNEARDPQTLTDTTEEKRRNRLYELAMKMSEKETSSGEDQESEPKTESENQKESLSSEDNSQSVQEELKKKFSAVSLCNISTEVLKVINATEELIAGSTGPWESPQVPPDRQKGMFPRGTDQVRLDEQLTSLEENVYLAAGTVYGLETQLTELEDAARCIHSGTDETHLADLEDQVATAAAQVHHAELQISDIESRISALTIAGLNIAPCVRFTRRRDQKQRTQVQTIDTSRQQRRKLPAPPVKAEKIETSSVTTIKTFNHNFILQGSSTNRTKERKGTTKDLMEPALESAVMY
Turning to B2, the binding result in assay [1] and in assay [2] was “binds” in each case.

B3: SLC33A1 (protein, UniProt O00400 1-549)
chain: MSPTISHKDSSRQRRPGNFSHSLDMKSGPLPPGGWDDSHLDSAGREGDREALLGDTGTGDFLKAPQSFRAELSSILLLLFLYVLQGIPLGLAGSIPLILQSKNVSYTDQAFFSFVFWPFSLKLLWAPLVDAVYVKNFGRRKSWLVPTQYILGLFMIYLSTQVDRLLGNTDDRTPDVIALTVAFFLFEFLAATQDIAVDGWALTMLSRENVGYASTCNSVGQTAGYFLGNVLFLALESADFCNKYLRFQPQPRGIVTLSDFLFFWGTVFLITTTLVALLKKENEVSVVKEETQGITDTYKLLFAIIKMPAVLTFCLLILTAKIGFSAADAVTGLKLVEEGVPKEHLALLAVPMVPLQIILPLIISKYTAGPQPLNTFYKAMPYRLLLGLEYALLVWWTPKVEHQGGFPIYYYIVVLLSYALHQVTVYSMYVSIMAFNAKVSDPLIGGTYMTLLNTVSNLGGNWPSTVALWLVDPLTVKECVGASNQNCRTPDAVELCKKLGGSCVTALDGYYVESIICVFIGFGWWFFLGPKFKKLQDEGSSSWKCKRNN
For B3, the binding entry in assay [2] is “binds”.
